At least one compound was matched to its structure with a doubt left.
Test system: S1P1 receptor
Test: S1P1 receptor desensitization in four in vitro systems (impedance HDMEC, HUVEC; FlipR CHO, HSC)
Format: cell-based, human
Settings: 1st stimulation >EC90, washout, 2nd stimulation
Protocol: FIG. 7: S1P1 receptor desensitization on human dermal microvascular endothelial cells (HDMEC) using an impedance assay. HDMECs were 1st stimulated for 1 h with either S1P (1 μM), fingolimod (100 nM) or compound A (1 μM), followed by a 30 min washout period. The effect of the 1st stimulation on receptor desensitization was assessed using a 2nd stimulation of S1P (3 concentrations) and measuring the resulting impedance (n=3 experiments). All 1st stimulation concentrations were >EC90. Bars are mean+/−s.e.m.
FIG. 8: S1P1 receptor desensitization on human umbilical vein endothelial cells (HUVEC) using an impedance assay. […] The effect of the 1st stimulation on receptor desensitization was assessed using a 2nd stimulation of S1P (4 concentrations) and measuring the resulting impedance (n=3 experiments). All 1st stimulation concentrations were >EC90. Bars are mean+/−s.e.m.
FIG. 9: S1P1 receptor desensitization on CHO cells overexpressing S1P1 (G-fusion) using a FlipR assay. […] After varying washout periods, receptor desensitization was assessed using a 2nd stimulation with S1P (100 nM). […]
FIG. 10: S1P1 receptor desensitization in human hepatic stellate cells (HSC) using a FlipR assay. […] After either 1 hour or 3 hours washout periods, receptor desensitization was assessed using a 2nd stimulation with the same compound. […]

CCCCCCCCc1ccc(CCC(N)(CO)CO)cc1 [Fingolimod]
Functional antagonism / receptor desensitization: induced sustained receptor desensitization

Reference: patent publication US9782411B2, “{4-[5-(3-chloro-phenoxy)-oxazolo[5,4-d]pyrimidin-2-yl]-2,6-dimethyl-phenoxy}-acetic acid for use in the prevention or treatment of acute kidney injury” (Sanofi, priority 2013, dated 2017)
